The supplement of paper PMC10849652
The other results are listed elsewhere or left out.

The chains behind the UniProt entries cited, without tags or fusion partners. Where a name states a change or a piece, a line headed by the entry shows the natural chain unless it says otherwise.
UniProt Q9BWW4: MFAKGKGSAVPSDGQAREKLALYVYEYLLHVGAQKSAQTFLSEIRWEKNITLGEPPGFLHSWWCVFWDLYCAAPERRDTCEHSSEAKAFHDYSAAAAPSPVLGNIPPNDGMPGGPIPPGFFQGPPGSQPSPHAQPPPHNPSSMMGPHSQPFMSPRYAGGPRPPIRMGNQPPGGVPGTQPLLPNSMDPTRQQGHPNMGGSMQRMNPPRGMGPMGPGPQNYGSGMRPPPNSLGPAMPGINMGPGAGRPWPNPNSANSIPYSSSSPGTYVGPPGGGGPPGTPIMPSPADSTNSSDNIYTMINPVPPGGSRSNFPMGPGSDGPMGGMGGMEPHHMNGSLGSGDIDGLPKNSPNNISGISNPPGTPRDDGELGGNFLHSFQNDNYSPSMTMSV
UniProt Q69YQ0: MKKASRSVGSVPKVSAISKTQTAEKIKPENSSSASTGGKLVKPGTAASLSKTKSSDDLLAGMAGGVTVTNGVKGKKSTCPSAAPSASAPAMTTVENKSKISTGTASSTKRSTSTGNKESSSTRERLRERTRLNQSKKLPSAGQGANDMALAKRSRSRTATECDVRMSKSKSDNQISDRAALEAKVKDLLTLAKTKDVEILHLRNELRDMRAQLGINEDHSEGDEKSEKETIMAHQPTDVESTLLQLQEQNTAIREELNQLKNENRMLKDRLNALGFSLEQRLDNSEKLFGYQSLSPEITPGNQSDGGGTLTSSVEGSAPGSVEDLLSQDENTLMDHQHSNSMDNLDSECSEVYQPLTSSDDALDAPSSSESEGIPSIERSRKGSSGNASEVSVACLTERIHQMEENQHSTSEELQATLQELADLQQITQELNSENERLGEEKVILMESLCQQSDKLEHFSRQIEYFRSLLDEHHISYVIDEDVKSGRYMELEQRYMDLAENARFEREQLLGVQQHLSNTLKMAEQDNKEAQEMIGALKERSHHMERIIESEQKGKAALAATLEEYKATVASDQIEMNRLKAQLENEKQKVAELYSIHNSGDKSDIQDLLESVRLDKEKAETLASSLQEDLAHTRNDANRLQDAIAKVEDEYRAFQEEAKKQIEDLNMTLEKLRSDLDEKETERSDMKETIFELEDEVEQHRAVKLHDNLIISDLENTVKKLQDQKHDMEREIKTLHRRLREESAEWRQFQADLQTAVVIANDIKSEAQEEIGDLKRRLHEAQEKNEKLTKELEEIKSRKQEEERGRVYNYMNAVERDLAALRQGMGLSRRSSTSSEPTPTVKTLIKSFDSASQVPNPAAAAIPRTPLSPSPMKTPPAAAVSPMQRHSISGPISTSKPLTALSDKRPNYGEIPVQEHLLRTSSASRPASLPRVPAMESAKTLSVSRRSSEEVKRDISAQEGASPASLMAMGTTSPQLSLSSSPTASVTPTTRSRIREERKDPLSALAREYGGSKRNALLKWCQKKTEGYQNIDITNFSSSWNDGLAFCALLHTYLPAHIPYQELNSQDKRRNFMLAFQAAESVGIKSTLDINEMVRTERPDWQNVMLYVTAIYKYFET
UniProt P08240: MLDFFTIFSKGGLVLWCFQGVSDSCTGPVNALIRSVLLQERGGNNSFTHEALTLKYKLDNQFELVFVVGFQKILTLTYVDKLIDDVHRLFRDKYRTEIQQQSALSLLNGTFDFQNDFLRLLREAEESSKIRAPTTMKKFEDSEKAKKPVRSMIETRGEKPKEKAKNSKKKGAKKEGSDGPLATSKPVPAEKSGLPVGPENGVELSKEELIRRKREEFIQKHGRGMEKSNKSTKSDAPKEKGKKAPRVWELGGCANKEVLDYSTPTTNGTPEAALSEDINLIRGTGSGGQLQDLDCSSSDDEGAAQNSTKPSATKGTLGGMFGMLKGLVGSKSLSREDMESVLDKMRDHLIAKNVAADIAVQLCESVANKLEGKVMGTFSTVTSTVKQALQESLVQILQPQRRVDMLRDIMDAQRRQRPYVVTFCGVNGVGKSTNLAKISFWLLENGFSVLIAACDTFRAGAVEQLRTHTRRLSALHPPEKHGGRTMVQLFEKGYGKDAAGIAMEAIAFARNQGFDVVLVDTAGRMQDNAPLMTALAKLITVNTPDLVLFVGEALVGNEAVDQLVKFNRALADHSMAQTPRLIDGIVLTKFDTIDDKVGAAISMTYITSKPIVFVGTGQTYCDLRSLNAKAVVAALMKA
UniProt Q14534: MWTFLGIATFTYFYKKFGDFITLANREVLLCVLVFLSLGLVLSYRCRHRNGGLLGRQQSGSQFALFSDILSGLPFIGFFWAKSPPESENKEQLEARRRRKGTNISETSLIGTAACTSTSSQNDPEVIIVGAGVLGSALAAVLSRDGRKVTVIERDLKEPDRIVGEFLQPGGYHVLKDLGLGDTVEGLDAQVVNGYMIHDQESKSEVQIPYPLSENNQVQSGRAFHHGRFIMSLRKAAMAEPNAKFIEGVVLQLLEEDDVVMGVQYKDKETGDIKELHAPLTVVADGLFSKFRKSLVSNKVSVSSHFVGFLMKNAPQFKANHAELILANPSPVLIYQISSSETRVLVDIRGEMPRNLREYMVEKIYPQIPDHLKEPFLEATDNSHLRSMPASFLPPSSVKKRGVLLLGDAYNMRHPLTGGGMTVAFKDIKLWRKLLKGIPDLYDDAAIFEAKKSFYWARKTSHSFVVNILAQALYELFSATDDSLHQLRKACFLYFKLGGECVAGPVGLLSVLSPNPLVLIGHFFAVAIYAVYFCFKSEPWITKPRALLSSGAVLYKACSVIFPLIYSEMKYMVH
UniProt Q9Y5M8: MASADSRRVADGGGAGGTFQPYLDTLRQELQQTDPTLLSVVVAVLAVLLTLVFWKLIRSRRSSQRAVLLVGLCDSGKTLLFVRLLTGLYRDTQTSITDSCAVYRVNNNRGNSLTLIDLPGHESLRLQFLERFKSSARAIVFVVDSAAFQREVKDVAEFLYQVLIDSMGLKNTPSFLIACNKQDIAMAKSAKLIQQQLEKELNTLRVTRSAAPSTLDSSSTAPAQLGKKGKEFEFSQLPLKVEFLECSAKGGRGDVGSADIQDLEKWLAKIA
UniProt Q9NRC1: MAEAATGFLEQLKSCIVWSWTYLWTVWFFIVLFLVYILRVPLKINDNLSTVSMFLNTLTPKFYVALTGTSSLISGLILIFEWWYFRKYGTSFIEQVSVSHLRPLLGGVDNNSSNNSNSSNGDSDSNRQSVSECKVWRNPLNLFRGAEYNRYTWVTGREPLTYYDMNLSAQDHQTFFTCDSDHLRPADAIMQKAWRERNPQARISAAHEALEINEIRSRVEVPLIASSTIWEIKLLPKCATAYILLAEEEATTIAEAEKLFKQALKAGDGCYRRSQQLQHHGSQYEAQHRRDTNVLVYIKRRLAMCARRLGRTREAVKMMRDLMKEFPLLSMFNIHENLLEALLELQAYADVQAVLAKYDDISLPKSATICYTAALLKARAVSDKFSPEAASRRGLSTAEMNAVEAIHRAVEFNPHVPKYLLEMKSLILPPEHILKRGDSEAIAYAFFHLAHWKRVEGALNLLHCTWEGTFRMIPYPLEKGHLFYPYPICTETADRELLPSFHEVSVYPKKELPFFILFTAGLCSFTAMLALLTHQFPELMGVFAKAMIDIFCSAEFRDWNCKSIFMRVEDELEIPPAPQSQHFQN
UniProt Q9BXP5: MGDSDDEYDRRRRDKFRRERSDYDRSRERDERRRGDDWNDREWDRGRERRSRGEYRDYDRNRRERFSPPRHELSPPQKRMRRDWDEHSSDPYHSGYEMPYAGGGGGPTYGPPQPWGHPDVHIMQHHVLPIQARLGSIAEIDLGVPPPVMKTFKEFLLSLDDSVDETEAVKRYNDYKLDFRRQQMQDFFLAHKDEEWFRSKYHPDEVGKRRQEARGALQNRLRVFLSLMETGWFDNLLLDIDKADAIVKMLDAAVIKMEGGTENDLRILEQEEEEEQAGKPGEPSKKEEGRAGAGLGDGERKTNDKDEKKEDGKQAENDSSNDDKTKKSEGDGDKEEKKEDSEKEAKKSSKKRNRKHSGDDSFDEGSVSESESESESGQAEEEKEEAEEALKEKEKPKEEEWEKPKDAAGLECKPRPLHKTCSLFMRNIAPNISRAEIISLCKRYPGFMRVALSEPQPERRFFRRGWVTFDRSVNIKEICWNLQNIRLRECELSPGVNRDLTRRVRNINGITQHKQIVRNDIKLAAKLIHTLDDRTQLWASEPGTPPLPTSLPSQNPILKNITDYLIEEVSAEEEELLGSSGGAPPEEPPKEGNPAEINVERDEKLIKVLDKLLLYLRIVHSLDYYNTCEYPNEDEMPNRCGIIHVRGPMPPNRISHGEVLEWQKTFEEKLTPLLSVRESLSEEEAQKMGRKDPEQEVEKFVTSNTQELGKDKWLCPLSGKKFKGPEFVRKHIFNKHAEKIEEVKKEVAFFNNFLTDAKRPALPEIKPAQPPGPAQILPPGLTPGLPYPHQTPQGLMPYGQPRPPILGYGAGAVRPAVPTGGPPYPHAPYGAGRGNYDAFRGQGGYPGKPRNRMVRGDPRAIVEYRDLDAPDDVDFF
UniProt Q9NQZ5: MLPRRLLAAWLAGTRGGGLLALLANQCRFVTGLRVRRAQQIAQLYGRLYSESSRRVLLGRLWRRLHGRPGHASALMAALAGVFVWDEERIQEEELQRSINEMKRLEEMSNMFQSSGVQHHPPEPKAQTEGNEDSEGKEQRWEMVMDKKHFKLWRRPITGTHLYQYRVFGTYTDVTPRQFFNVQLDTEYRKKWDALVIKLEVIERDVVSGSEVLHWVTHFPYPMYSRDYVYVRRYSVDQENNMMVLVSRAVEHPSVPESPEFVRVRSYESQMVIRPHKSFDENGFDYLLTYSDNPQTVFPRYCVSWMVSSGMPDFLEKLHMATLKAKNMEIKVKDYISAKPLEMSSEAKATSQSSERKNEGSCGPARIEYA

Experiments:
Test in all cases: log2 fold change, soluble protein after heating vs DMSO (PISA); higher = thermal stabilisation; K562 lysate, 10 uM; active = over 0.2 and 3.5 SD of the protein, either way, in both replicates (recomputed)
vemurafenib = compound: CCCS(=O)(=O)Nc1ccc(F)c(C(=O)c2c[nH]c3ncc(-c4ccc(Cl)cc4)cc23)c1F [vemurafenib]
In short: (§1)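 Soluble protein was defined as the supernatant remaining after 21,000xg for 90 min, following pooling of heated aliquots and adjustment to 0.5% NP-40 at 4°C. Before that, crude K562 extract at 1 mg/mL protein in PBS pH 7.4 with 1 mM MgCl2 was treated with 10 μM compound for 30 min and heated for 3 min across 48°C-58°C. Quantification used TMTpro 16plex LC-MS/MS with channel sums equalised, and values are log-two fold changes in thermal stability relative to solvent controls from duplicates.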

[1] = compound: CCCS(=O)(=O)Nc1ccc(F)c(C(=O)c2c[nH]c3ncc(Cl)cc23)c1F
In short: as §1

barasertib = compound: CCN(CCCOc1ccc2c(Nc3cc(CC(=O)Nc4cccc(F)c4)[nH]n3)ncnc2c1)CCOP(=O)(O)O [barasertib]
In short: as §1

[2] = compound: CC[C@@H]1C(=O)N(C)c2cnc(Nc3ccc(C(=O)NC4CCN(C)CC4)cc3OC)nc2N1C1CCCC1
In short: as §1

volasertib = compound: CC[C@@H]1C(=O)N(C)c2cnc(Nc3ccc(C(=O)N[C@H]4CC[C@H](N5CCN(CC6CC6)CC5)CC4)cc3OC)nc2N1C(C)C [volasertib]
In short: as §1

[3] = compound: CCn1c(C(=O)N(C2CC2)C2CC2)cc2c3c(ncn3C)c(Nc3cc(C)n(C)n3)nc21
In short: as §1

[4] = compound: CCn1cc(-c2ccnc3[nH]c(-c4cccc(CN(C)C)c4)cc23)c(-c2ccc(NC(=O)N(C)C)cc2)n1
In short: as §1

[5] = compound: CN1CCC(CNc2ccc3ncc(-c4cccc(OC(F)(F)F)c4)n3n2)CC1
In short: as §1

saracatinib = compound: CN1CCN(CCOc2cc(OC3CCOCC3)c3c(Nc4c(Cl)ccc5c4OCO5)ncnc3c2)CC1 [saracatinib]
In short: as §1

sotrastaurin = compound: CN1CCN(c2nc(C3=C(c4c[nH]c5ccccc45)C(=O)NC3=O)c3ccccc3n2)CC1 [sotrastaurin]
In short: as §1

alvocidib = compound: CN1CC[C@H](c2c(O)cc(O)c3c(=O)cc(-c4ccccc4Cl)oc23)[C@H](O)C1 [alvocidib]
In short: as §1

Tubastatin A = compound: CN1CCc2c(c3ccccc3n2Cc2ccc(C(=O)NO)cc2)C1 [Tubastatin A]
In short: as §1

[6] = compound: CNC(=O)C1=CC=CC=C1NC2=NC(=NC=C2Cl)NC3=C(C=C(C=C3)N4CCOCC4)OC
In short: as §1

defactinib = compound: CNC(=O)c1ccc(Nc2ncc(C(F)(F)F)c(NCc3nccnc3N(C)S(C)(=O)=O)n2)cc1 [defactinib]
In short: as §1

[7] = compound: CNc1nc(-c2ccc3c(N)n[nH]c3c2)cc(N2C[C@@H](C(=O)NC3CCCCC3)CC[C@H]2C)n1
In short: as §1

encorafenib = compound: COC(=O)N[C@@H](C)CNc1nccc(-c2cn(C(C)C)nc2-c2cc(Cl)cc(NS(C)(=O)=O)c2F)n1 [encorafenib]
In short: as §1

[8] = compound: COC(=O)[C@H](CCSC)NC(=O)C1=C(C=C(C=C1)NC[C@H](CS)N)C2=CC=CC=C2
In short: as §1

alisertib = compound: COc1cc(Nc2ncc3c(n2)-c2ccc(Cl)cc2C(c2c(F)cccc2OC)=NC3)ccc1C(=O)O [alisertib]
In short: as §1

[9] = compound: COc1cc2nc(-c3cc(F)ccc3O)nc(N[C@@H]3CNC[C@H]3C(C)(C)O)c2cc1OC
In short: as §1

gefitinib = compound: COc1cc2ncnc(Nc3ccc(F)c(Cl)c3)c2cc1OCCCN1CCOCC1 [gefitinib]
In short: as §1

Measured: log2 fold change

SSBP3 (UniProt Q9BWW4)
inactive: vemurafenib -0.02 | [1] -0.033 | barasertib -0.049 | [2] -0.001 | volasertib 0.008 | [3] 0.038 | [4] -0.03 | [5] -0.083 | saracatinib 0.068 | sotrastaurin -0.005 | alvocidib 0.028 | Tubastatin A 0.074 | [6] 0 | defactinib 0.072 | [7] 0.008 | encorafenib 0.032 | [8] 0.02 | alisertib 0.018 | [9] -0.016 | gefitinib -0.054

SPECC1L (UniProt Q69YQ0)
inactive: vemurafenib -0.017 | [1] 0.019 | barasertib 0.004 | [2] 0.078 | volasertib -0.003 | [3] -0.019 | [4] -0.062 | [5] 0.072 | saracatinib 0.012 | sotrastaurin -0.005 | alvocidib 0.097 | Tubastatin A 0.049 | [6] -0.005 | defactinib 0.052 | [7] 0.005 | encorafenib -0.011 | [8] -0.037 | alisertib 0.049 | [9] 0.005 | gefitinib -0.003

SRPRA (UniProt P08240)
inactive: vemurafenib -0.02 | [1] -0.005 | barasertib 0.044 | [2] -0.032 | volasertib -0.016 | [3] 0.018 | [4] -0.027 | [5] -0.017 | saracatinib -0.002 | sotrastaurin -0.017 | alvocidib 0.015 | Tubastatin A -0.007 | [6] -0.014 | defactinib 0.022 | [7] -0.045 | encorafenib 0.001 | [8] 0.014 | alisertib 0.011 | [9] 0.019 | gefitinib -0.014

SQLE (UniProt Q14534)
inactive: vemurafenib 0.036 | [1] -0.01 | barasertib 0.103 | [2] 0.051 | volasertib 0.073 | [3] -0.063 | [4] -0.06 | [5] -0.02 | saracatinib 0.077 | sotrastaurin 0.065 | alvocidib 0.003 | [6] 0.018 | defactinib -0.009 | [7] -0.022 | encorafenib 0.002 | alisertib 0.059 | [9] -0.015 | gefitinib -0.045
active: Tubastatin A 0.377 | [8] 0.437

SRPRB (UniProt Q9Y5M8)
inactive: vemurafenib -0.006 | [1] 0.007 | barasertib -0.035 | [2] -0.013 | volasertib -0.047 | [3] 0.01 | [4] 0.001 | [5] 0.001 | saracatinib 0 | sotrastaurin 0 | alvocidib -0.041 | Tubastatin A 0.035 | [6] -0.01 | defactinib -0.038 | [7] -0.024 | encorafenib -0.002 | [8] 0 | alisertib 0.017 | [9] 0.061 | gefitinib -0.025

ST7 (UniProt Q9NRC1)
inactive: vemurafenib -0.057 | [1] -0.026 | barasertib 0.027 | [2] 0.097 | volasertib 0.044 | [3] 0.153 | [4] 0.001 | [5] 0.154 | saracatinib 0.036 | sotrastaurin -0.023 | alvocidib 0.026 | Tubastatin A -0.079 | [6] -0.018 | defactinib 0.022 | [7] 0.049 | encorafenib 0.098 | [8] -0.095 | alisertib 0.078 | [9] -0.08 | gefitinib -0.098

SRRT (UniProt Q9BXP5)
inactive: vemurafenib 0.012 | [1] 0.012 | barasertib -0.008 | [2] -0.039 | volasertib -0.08 | [3] 0.042 | [4] 0.061 | [5] -0.1 | saracatinib -0.016 | sotrastaurin 0.02 | alvocidib 0.014 | Tubastatin A -0.195 | [6] 0.008 | defactinib -0.013 | [7] -0.02 | encorafenib 0.024 | [8] 0.202 | alisertib 0.03 | [9] -0.01 | gefitinib 0.009

STARD7 (UniProt Q9NQZ5)
inactive: vemurafenib 0 | [1] 0.005 | barasertib 0.005 | [2] -0.021 | volasertib 0.046 | [3] -0.025 | [4] 0.092 | [5] 0.001 | saracatinib -0.016 | sotrastaurin 0.027 | alvocidib -0.019 | Tubastatin A 0.161 | [6] 0.052 | defactinib 0.001 | [7] 0.061 | encorafenib -0.021 | [8] -0.069 | alisertib -0.024 | [9] -0.026 | gefitinib -0.016
